PubChem BioAssay AID743121 – NCATS – 2013
Here is a random part of about 26,000 reagents tested. 167 of them (0.63%) were called active. 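Calls are per gene from RSA p-values that are not deposited; an individual active-marked siRNA can sensitise only weakly.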 A number with no mark means an inactive call. Reagents against one gene are numbered here. Further read-outs or replicates are left out here. Reagent sequences are not shown.

Aim: 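Genes whose silencing strengthens cell killing by camptothecin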 (primary screen)
Cell system: MDA-MB-231 cells, a human breast cancer line
Reagents: single siRNA against human genes, 20 nM siRNA (0.8 pmol per well)
Timing: 120 h (drug added 48 h after transfection, read 72 h later)
Conditions: camptothecin 20 nM (about EC30) for 72 h; vehicle 0.1% DMSO in parallel plates
Read-out: 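CellTiter-Glo ATP signal, scaled to control siRNA as percent viability; sensitisation given as log2 of untreated divided by camptothecin-treated viability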
Reading the numbers: log2 vehicle/camptothecin viability: higher = stronger sensitisation to camptothecin
Hit rule: 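Active genes have an RSA gene-level p-value below 0.001, computed from the ratios of their separate siRNAs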

log2 vehicle/camptothecin viability, by gene and reagent
HAS1: #1 0.445; #2 -0.191; #3 -0.778; #4 -0.497
RGS14: #1 -0.42; #2 0.0866; #3 -0.224
ADAM7: #1 -0.211; #2 -0.055; #3 0.281; #4 -0.0133
OR2C1: #1 0.525; #2 0.00334; #3 -0.234; #4 -0.596
NCAPG: #1 -0.302; #2 -0.275; #3 0.236; #4 -0.134
OPN1LW: #1 -0.211; #2 0.19
TK2: #1 -0.0127; #2 -0.345; #3 0.258; #4 -0.11
CD209: #1 0.0416; #2 -0.17; #3 -0.22
ARHGDIB: #1 -0.0692; #2 -0.49; #3 -0.0568; #4 0.165
ABCA10: #1 -0.2; #2 0.0101; #3 -0.274; #4 -0.324
CCR7: #1 -0.648; #2 -0.369; #3 -0.182; #4 -0.246
GOSR2: #1 -0.566; #2 -0.403; #3 0.691; #4 -0.398; #5 -0.25; #6 -0.196; #7 -0.0335; #8 -0.223
FGF19: #1 -0.152; #2 -0.286; #3 0.275; #4 -0.642
SPRYD7: #1 0.0259; #2 0.0357; #3 0.0278; #4 0.349
GUCY2F: #1 -0.293; #2 -0.0357; #3 0.278; #4 -0.381
CYP2A13: #1 -0.495; #2 -0.0902; #3 -0.00227; #4 -0.172
ADIPOQ: #1 -0.312; #2 -0.16; #3 -0.417; #4 -0.0213
RGL2: #1 -0.0679; #2 -0.325; #3 -0.118; #4 0.299
KTN1: #1 0.14; #2 0.0835; #3 -0.569; #4 -0.246
GRIN3A: #1 -0.0481; #2 -0.223; #3 0.032; #4 -0.251
CRYZL1: #1 0.252; #2 -0.45; #3 1.05
UBFD1: #1 -0.0251; #2 0.466; #3 -0.142
AMN: #1 -0.302; #2 -0.177; #3 -0.517
